In US7241581B2, “Methods of identifying compounds that modulate IL-4 receptor-mediated IgE synthesis utilizing a c-MYC protein” (Rigel Pharmaceuticals, Inc., priority 2002, dated 2007):
Some of these results come from one statement about several compounds together.

Tested on: germline ε promoter
Assay: Functional profile of BR10A1 wt and mutants in the A5T4 reporter cell line
Set-up: species or system human
Conditions: based on reporter ratio; % change calculated after subtracting 1.0 from the ratios
Protocol: Following infection, the library was enriched for cells expressing peptides that inhibit IL-4 induced ε transcription as generally outlined in the top half of FIG. 3 and sorted by FACS into single cell clones. The clones were then screened as generally illustrated in the lower half of FIG. 3. Briefly, for screening, each clone was divided into two populations and one population was treated with Dox (10 ng/ml). After 5 days, both populations were stimulated with IL-4 (final conc. 60 U/mL; PeptroTech, Inc.) and, after 3 more days, both populations were analyzed by FACS to measure BFP and GFP fluorescence. FACS data were converted to a “reporter ratio”, which is defined for this purpose as the ratio of the geometric mean of GFP fluorescence of the +IL-4/+Dox to the +IL-4/−Dox populations. Cells expressing a peptide that inhibits germline ε transcription have a reporter ratio of ≧1.1. A reporter ratio of ≧1.2 is indicative of strong inhibition.
The ability of peptide BR10A1 wt to inhibit germline ε transcription was confirmed in naive cells. Briefly, Phoenix cells were transfected with a retroviral vector encoding a BFP-BR10A1 wt peptide fusion as described in WO 99/58663 and WO 97/27213. Naïve A5T4 cells were infected with the resultant virions and grown for 3 days. The infected cells were stimulated with IL-4 (60 U/mL) and, after 3 days, the cells were assessed by FACS for BFP and GFP. […] The BFP fluorescence data corresponding to the BFP^+ and BFP^− populations are provided in Panel A. The GFP fluorescence data corresponding to the BFP^+ and BFP^− populations are presented in Panel B. The reporter ratio for this purpose is determined as the geometric mean of the GFP fluorescence of the BFP^− population divided by the geometric mean of the GFP fluorescence of the BFP^+ population. The reporter ratio for the BR10A1 in this re-infection assay was 1.27.
A collection of BR10A1 mutants was generated by replacing single or double amino acid residues in the sequence of BR10A1 wt with a different amino acid, typically an alanine or glycine, as described in copending application Ser. No.10/095,659, entitled Methods of Identifying Protein Targets, filed Mar. 8, 2002 . The functional profiles for the mutants derived from BR10A1 wt was obtained by constructing and screening for activity in the A5T4 reporter cell line in the manner described above. The activity of each mutant at the germline ε promoter is reflected in the reporter ratio as described above. The reporter ratios were the functional values that were used to develop the functional profiles. Measurement of the reporter ratios of the mutant peptides was carried out in a number of separate experiments, each time comparing the value of cells transfected with mutant peptide to that of cells transfected with control WT peptide done at the same time. The reporter ratios of the control WT peptide can vary depending upon a number of factors including the infectivity or the state of the infected cells at the time of infection.
TABLE 2 depicts the amino acid sequences (the dual alanine mutations are underlined) of the mutants tested and the measured reporter ratios when screening in the A5T4 reporter line.
Comparison of the interaction and functional profiles was performed by categorizing the mutants of BR10A1 based on the functional and interaction assays. Based on the reporter ratio, each mutant was categorized into one of four functional categories: (1) reduction of function (ROF); (2) loss of function (LOF); (3) increase of function (IOF) or (4) functionally neutral (N) as compared to the activity of the wild type peptide, here BR10A1 wt. As mentioned previously, cells expressing a peptide that inhibits germline ε transcription have reporter ratios of ≧1.1. Cells expressing a loss of function (LOF) mutant have a reporter ratio of <1.11. […] Functionally neutral mutants have reporter ratios that fall within ±50% of that of the BR10A1 wt peptide. […]

Sequence | functional category as compared to the activity of the wild type peptide
AARRESCITRSVEEGWGLFYLGP (peptide encoded by random oligo-BR10A1MQ) [dual alanine mutant of BR10A1 wt] | functionally neutral (Functionally neutral mutants have reporter ratios that fall within ±50% of that of the BR10A1 wt peptide)
MQAAESCITRSVEEGWGLFYLGP (peptide encoded by random oligo-BR10A1RR) [dual alanine mutant of BR10A1 wt] | functionally neutral (Functionally neutral mutants have reporter ratios that fall within ±50% of that of the BR10A1 wt peptide)
MQRRAACITRSVEEGWGLFYLGP (peptide encoded by random oligo-BR10A1ES) [dual alanine mutant of BR10A1 wt] | functionally neutral (Functionally neutral mutants have reporter ratios that fall within ±50% of that of the BR10A1 wt peptide)
MQRRESCITRSVAAGWGLFYLGP (peptide encoded by random oligo-BR10A1EE) [dual alanine mutant of BR10A1 wt] | functionally neutral (Functionally neutral mutants have reporter ratios that fall within ±50% of that of the BR10A1 wt peptide)
MQRRESCITRSVEEAAGLFYLGP (peptide encoded by random oligo-BR10A1GW) [dual alanine mutant of BR10A1 wt] | functionally neutral (Functionally neutral mutants have reporter ratios that fall within ±50% of that of the BR10A1 wt peptide)
MQRRESCITRSVEEGWAAFYLGP (peptide encoded by random oligo-BR10A1GL) [dual alanine mutant of BR10A1 wt] | functionally neutral (Functionally neutral mutants have reporter ratios that fall within ±50% of that of the BR10A1 wt peptide)
MQRRESCITRSVEEGWGLAALGP (peptide encoded by random oligo-BR10A1FY) [dual alanine mutant of BR10A1 wt] | functionally neutral (Functionally neutral mutants have reporter ratios that fall within ±50% of that of the BR10A1 wt peptide)
MQRRESCITRSVEEGWGLFY (peptide encoded by random oligo-BR10A1STOP) [C-terminally truncated form of BR10A1 wt] | functionally neutral (Functionally neutral mutants have reporter ratios that fall within ±50% of that of the BR10A1 wt peptide)
